Assay results taken from US20250375530A1, “ROR1/EGFR BI-SPECIFIC ANTIGEN BINDING MOLECULES” (ALMAC DISCOVERY LIMITED, priority 2022, published 2025).
These are yes or no findings as the source states them, for the method shown. Some entries that bind do so weakly or less than the wild type.

Target: human ROR1-Fc (CHO) (human)
Test: ELISA, plate coated with human ROR1-hFc, HisMyc-tagged VNAR at a single 5 ug/mL, Abs 450 nm; no blank bar shown

| binding | Binder |
| --- | --- |
| binds | AA5.S (VNAR) VNAR: TRVDQSPSSLSASVGDRVTITCVLTGTGYGLYSSTYWYRKNPGSSDEERIIIGGRYSESVNKGSKSFTLTISSLQPEDSATYYCRAREARHPWLRQWYDGAGTKVEIKQ |
| binds | AC5.S (VNAR) VNAR: TRVDQSPSSLSASVGDRVTITCVLTDTSYGLYSSTYWYRKNPGSSNKERMSISGRYSESVNKGSKSFTLTISSLQPEDSATYYCRAREARHPWLRQWYDGAGTKVEIKQ |
